PubChem BioAssay AID1259308 – NCATS, 2017
Test: 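Genes whose loss raises luciferase production in HEK293 cells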 (primary screen). Cell system: human HEK293 embryonic kidney cells stably expressing firefly luciferase (HEK-CMV-Luc2-Hygro). Knock-down reagent: single siRNA against human genes, 0.8 pmol siRNA per well. Duration: 72 h. Measurement: 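Reporter luminescence and viable-cell signal on separate replicate plates, given as percent of non-targeting control and median/MAD z-scores, plus per-cell luciferase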. Reading the numbers: total luciferase, z-score and total luciferase, % of control: higher = more reporter protein produced; luciferase per cell, z-score: higher = more reporter output per viable cell; viable cells, % of control: higher = more viable cells. Hit rule: 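An siRNA counts as active if its total luciferase robust z-score exceeds 3; genes with two or more such siRNAs out of three were retested with fresh siRNAs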. Meaning of the calls: active = raised luciferase; inactive = no rise.
In all, the deposit lists about 59,000 reagents; below is an unselected part. About 1,510 of them (2.6%) count as active. 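Calls use total luciferase alone and ignore viability, so some active siRNAs may act by altering cell number.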 Reagents against one gene are numbered here.

no.	gene	reagent	total luciferase, z-score	total luciferase, % of control	luciferase per cell, z-score	viable cells, % of control	activity call
1	CARMIL2	1	1.45	111	1.81	76.8	inactive
2	CARMIL2	2	-0.186	78.2	0.379	79.1	inactive
3	CARMIL2	3	0.879	99.4	1.01	85.2	inactive
4	PABPC1L	1	1.05	103	0.207	109	inactive
5	PABPC1L	2	-0.0735	80.4	-0.681	108	inactive
6	PABPC1L	3	-0.234	77.2	-0.58	101	inactive
7	ZNF101P2	1	-0.368	74.6	1.58	54.9	inactive
8	ZNF101P2	2	1.08	103	0.624	98	inactive
9	ZNF101P2	3	-0.301	75.9	0.435	75.6	inactive
10	TBCC	1	-1.04	61.2	-0.694	82.1	inactive
11	TBCC	2	-1.72	47.7	-1.35	76.1	inactive
12	TBCC	3	1.85	119	1.41	91.5	inactive
13	C1orf52	1	-1.23	57.4	-0.746	78.1	inactive
14	C1orf52	2	-0.192	78.1	0.468	77.1	inactive
15	C1orf52	3	0.374	89.3	0.662	83.9	inactive
16	RECQL	1	-0.0337	81.2	0.615	77.2	inactive
17	RECQL	2	1.1	104	0.639	97.9	inactive
18	RECQL	3	0.383	89.5	-0.291	108	inactive
19	KRT16	1	-0.341	75.1	-0.167	87.7	inactive
20	KRT16	2	-0.505	71.8	-0.299	86.9	inactive
21	KRT16	3	2.45	131	1.86	89.5	inactive
22	CYTOR	1	3.07	143	3.56	62.5	active
23	CYTOR	2	-0.742	67.1	0.534	65.2	inactive
24	CYTOR	3	-1.04	61.3	-1.43	99.9	inactive
25	TOR1B	1	-0.0729	80.4	-0.0355	90.7	inactive
26	TOR1B	2	-2.3	36.1	-1.31	56.9	inactive
27	TOR1B	3	-1.21	57.7	-1.28	90.5	inactive
28	GRAMD1C	1	-0.816	65.7	-0.895	92.9	inactive
29	GRAMD1C	2	4.02	162	3.45	72.8	active
30	GRAMD1C	3	0.439	90.6	0.159	97.1	inactive
31	H2BC1	1	-0.898	64	-1.03	93.9	inactive
32	H2BC1	2	-0.329	75.3	-0.26	90.1	inactive
33	H2BC1	3	0.44	90.6	-0.381	112	inactive
34	FLII	1	-1.68	48.5	-1.16	73.5	inactive
35	FLII	2	0.122	84.3	-0.536	108	inactive
36	FLII	3	0.169	85.3	0.355	86.8	inactive
37	FGF19	1	-0.99	62.2	-1.06	91.8	inactive
38	FGF19	2	0.239	86.6	-0.0751	98.8	inactive
39	FGF19	3	-0.176	78.4	-0.889	111	inactive

A few values from the entries so far:
Entry for KRT16 #2 in “total luciferase, z-score”: -0.505
Value of FGF19 #3 in “viable cells, % of control”: 111
